Source: paper PMC9939733 (The Journal of Biological Chemistry, 2023)
Numbering of substitutions follows the chain as printed.

The chains behind the UniProt entries cited, without tags or fusion partners.
UniProt O75874, whole entry R132H: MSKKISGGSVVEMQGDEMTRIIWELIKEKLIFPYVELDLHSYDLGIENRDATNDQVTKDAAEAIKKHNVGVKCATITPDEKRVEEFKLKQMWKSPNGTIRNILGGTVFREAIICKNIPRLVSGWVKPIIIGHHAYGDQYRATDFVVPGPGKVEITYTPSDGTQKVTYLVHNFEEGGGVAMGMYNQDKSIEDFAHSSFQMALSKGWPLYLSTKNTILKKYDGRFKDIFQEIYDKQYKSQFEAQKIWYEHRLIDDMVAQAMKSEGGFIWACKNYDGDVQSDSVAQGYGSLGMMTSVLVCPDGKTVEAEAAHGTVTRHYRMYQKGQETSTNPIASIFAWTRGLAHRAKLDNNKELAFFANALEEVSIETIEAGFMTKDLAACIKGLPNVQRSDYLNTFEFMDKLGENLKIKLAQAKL

Tests used:
Assay type in all cases: biochemical
[1] = molecular target: T1, R132H IDH1 (Homo sapiens, UniProt O75874, R132H); test: Absorbance assay (NADPH consumption), substrate turnover in the absence of 2OG; design: made in house; host or cells: Escherichia coli BL21(DE3) pLyS; conditions: no 2OG; […] test compound, 0.03 μM R132H IDH1, 50 μM NADPH; 2OG = 100
Method: (§1) Compounds were dispensed using a CyBio SDW-CW CyBi-Well Simultaneous Pipettor and assay started using a ThermoFisher Multidrop Combi reagent dispenser.
(§2) Reactions were performed as technical quadruplicates.

[2] = molecular target: T2, R172K IDH2 (Homo sapiens, UniProt P48735, R172K); test: as above; conditions: no 2OG; 1.0 mM test compound, 0.03 μM R172K IDH2, 50 μM NADPH; 2OG = 100
T2 construct: made in house; host or cells: Sf21 insect cells (cell pellets prepared at Evotec)
T2 sequence (P48735 40-452 R172K): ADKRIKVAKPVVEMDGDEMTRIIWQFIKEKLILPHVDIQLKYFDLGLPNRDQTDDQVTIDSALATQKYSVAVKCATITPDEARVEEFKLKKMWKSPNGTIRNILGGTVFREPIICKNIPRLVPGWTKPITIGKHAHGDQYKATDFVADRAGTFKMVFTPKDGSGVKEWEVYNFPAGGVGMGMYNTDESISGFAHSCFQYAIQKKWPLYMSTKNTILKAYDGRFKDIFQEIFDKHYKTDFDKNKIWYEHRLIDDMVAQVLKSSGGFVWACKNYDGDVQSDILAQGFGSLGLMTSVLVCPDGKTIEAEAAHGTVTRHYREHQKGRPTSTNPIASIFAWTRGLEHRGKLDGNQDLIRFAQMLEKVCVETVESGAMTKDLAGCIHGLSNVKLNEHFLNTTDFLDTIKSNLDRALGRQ
Method: as §1, §2

[3] = molecular target: T3, WT IDH2 (Homo sapiens, UniProt P48735); test: Absorbance assay, WT activity in the presence of equimolar DL-isocitrate (inhibition); conditions: […] isocitrate and […] test compound, 75 μM NADP+, 2.0 nM WT IDH2
T3 construct: made in house; host or cells: Sf21 insect cells (cell pellets prepared at Evotec)
T3 sequence (P48735 40-452): T2 sequence (P48735 40-452 R172K) with K133R
Method: as §1, §2

[4] = molecular target: T2, R172K IDH2; test: Absorbance assay, variant activity in the presence of equimolar 2OG (inhibition screen); conditions: 1.0 mM 2OG and 1.0 mM test compound, 0.03 μM R172K IDH2, 50 μM NADPH
Method: as §1, §2

[5] = molecular target: T1, R132H IDH1; test: as above; design: made in house; host or cells: Escherichia coli BL21(DE3) pLyS; conditions: […] 2OG and […] test compound, 0.03 μM R132H IDH1, 50 μM NADPH
Method: as §1, §2

O=C(O)C(=O)Cc1ccc(O)cc1 [hydroxyphenylpyruvic acid]
activity [%] (%-substrate conversion after 20 min incubation) [1]: < 10%
activity [%] (%-substrate conversion after 20 min incubation) [2]: < 10%
activity [%] (%-substrate conversion after 20 min incubation) [3]: 96 ± 5%
activity [%] (%-substrate conversion after 20 min incubation) [4]: 97 ± 6%
activity [%] (%-substrate conversion after 20 min incubation) [5]: 76 ± 1%
